The text below walks through data of paper PMC7863242.

The chains behind the UniProt entries cited, without tags or fusion partners.
UniProt O96019: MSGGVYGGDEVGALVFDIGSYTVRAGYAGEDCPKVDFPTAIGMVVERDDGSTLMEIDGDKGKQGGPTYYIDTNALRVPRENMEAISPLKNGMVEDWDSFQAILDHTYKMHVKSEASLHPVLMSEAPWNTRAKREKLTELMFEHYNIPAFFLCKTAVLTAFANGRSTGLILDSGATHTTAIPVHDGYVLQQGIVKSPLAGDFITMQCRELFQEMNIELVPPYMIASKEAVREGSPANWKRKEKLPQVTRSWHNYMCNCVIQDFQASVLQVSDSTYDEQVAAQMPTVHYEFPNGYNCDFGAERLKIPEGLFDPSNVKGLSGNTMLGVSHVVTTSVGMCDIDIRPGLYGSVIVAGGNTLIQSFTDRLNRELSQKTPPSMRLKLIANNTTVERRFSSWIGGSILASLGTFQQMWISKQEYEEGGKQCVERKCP
UniProt Q92993: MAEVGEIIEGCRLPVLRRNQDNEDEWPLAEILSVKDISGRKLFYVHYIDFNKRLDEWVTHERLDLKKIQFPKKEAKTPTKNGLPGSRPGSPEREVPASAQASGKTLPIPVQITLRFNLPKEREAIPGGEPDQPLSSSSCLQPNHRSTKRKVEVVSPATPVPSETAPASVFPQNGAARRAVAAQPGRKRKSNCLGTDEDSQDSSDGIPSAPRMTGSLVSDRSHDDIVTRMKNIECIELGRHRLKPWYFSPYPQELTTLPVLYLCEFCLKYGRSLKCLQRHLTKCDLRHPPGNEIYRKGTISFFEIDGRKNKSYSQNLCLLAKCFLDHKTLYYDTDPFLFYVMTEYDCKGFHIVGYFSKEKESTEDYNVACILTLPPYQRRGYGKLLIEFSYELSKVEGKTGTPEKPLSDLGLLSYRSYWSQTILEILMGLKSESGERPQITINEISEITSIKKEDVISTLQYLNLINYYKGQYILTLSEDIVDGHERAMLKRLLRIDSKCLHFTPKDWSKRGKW

These are yes or no findings as the source states them, for the method shown. In cells and extracts the contact can be indirect. Some binding calls cover weakened binding; strength is not graded here.

The experiment concerns the target ACTL6A overexpressed in SUM159PT-ACTL6A cells (human) (UniProt O96019). The experiment is described as follows: co-IP; IP assay in SUM159PT-ACTL6A cells (Fig. 2g).

Take KAT5 (from UniProt Q92993 1-513): the binding result is on record as “binds”.
